# Data published in PubChem BioAssay AID330 (DTP/NCI, 2004).
# The list shows only some results of the screen, not a fair sample: it is rich in T/C values a quarter to a half above the control, in often repeated tests (any T/C) and in doses without a T/C. Further doses and runs are listed elsewhere. T/C: endpoint of the treated group in % of that of the vehicle group. Some entries give survivors of the animals treated and no T/C: the source files T/C as zero there, which appears to mark a toxic dose or a test without result, not a measured value. Some survivor counts are full or nearly so, which does not show that the dose was tolerated: survival well below the control is almost never listed, so the zero probably covers shortened survival too. Survivors were counted at the toxicity check, usually on the fifth day, unless a day is given; later deaths do not show. Schedule codes are those of the source, read here as Q, the interval in days (D) or hours (H), X, the number of doses. Some entries hold several experiments; the values are given in rising order. Where survival is the endpoint, this PubChem deposit counts one and a half times the control or more as active, and values a quarter to a half above the control carry no call in these data; other NCI protocols may use other cut-offs. Some T/C values carry the count of animals alive at the toxicity check (mostly the fifth day); where none is given, no animal had died by that day.
# System: P388 leukemia ip, CD2F1 mice, survival T/C
# Assay: NCI In Vivo Anticancer Drug Screen. Data for tumor model P388 Leukemia (intraperitoneal) in CD2F1 (CDF1) mice
# Conditions: T/C endpoint: median survival time, higher T/C = longer survival
# [1] = dose: 100.0 mg/kg/injection, schedule: Q01DX005 (ip), vehicle: Klucel (hydroxypropylcellulose) (HPC)
# [2] = dose: 200.0 mg/kg/injection, schedule: Q01DX005 (ip), vehicle: saline
# [3] = dose: 400.0 mg/kg/injection, schedule: Q01DX009 (ip), vehicle: saline with Tween-80
# [4] = dose: 240.0 mg/kg/injection, schedule: Q01DX005 (ip), vehicle: saline with Tween-80
# [5] = dose: 50.0 mg/kg/injection, schedule: Q01DX005 (ip), vehicle: saline with Tween-80
# [6] = dose: 100.0 mg/kg/injection, schedule: Q01DX005 (ip), vehicle: saline with Tween-80
# [7] = dose: 200.0 mg/kg/injection, schedule: Q01DX005 (ip), vehicle: saline with Tween-80
# [8] = dose: 120.0 mg/kg/injection, schedule: Q01DX005 (ip), vehicle: saline with Tween-80
# [9] = dose: 240.0 mg/kg/injection, schedule: Q01DX005 (ip), vehicle: saline
# [10] = dose: 240.0 mg/kg/injection, schedule: Q01DX005 (ip), vehicle: Klucel (hydroxypropylcellulose) (HPC)
# [11] = dose: 25.0 mg/kg/injection, schedule: Q01DX009 (ip), vehicle: saline with Tween-80
compound,measurement,setting,value
Cc1noc(C)c1CON,survivor count,"dose: 150.0 mg/kg/injection, schedule: Q01DX009 (ip), vehicle: saline with Tween-80",6 of 6
same,survivor count,"dose: 300.0 mg/kg/injection, schedule: Q01DX009 (ip), vehicle: saline with Tween-80",6 of 6
CC1=C/C(O)CC(=O)Cc2nc(co2)C(=O)N2CCC=C2C(=O)OC(C(C)C)C(C)/C=C\C(=O)NC/C=C\1 (stereo unspecified),T/C,[1],126 % of control
CC1CN(Cc2ccccc2)CCC1N1CCCCC1 (stereo unspecified),survivor count,[2],0 of 6
O=C(O)c1cc2ccccc2o1,survivor count,[3],1 of 3
CCN(CC)CCCC(C)Nc1cc(C)nc2cc(N(C)C)ccc12 (stereo unspecified),survivor count,"dose: 50.0 mg/kg/injection, schedule: Q01DX009 (ip), vehicle: Klucel (hydroxypropylcellulose) (HPC)",3 of 6
[CH3][Sn]1([CH3])[O]C(=O)CC(CC(=O)O)C(=O)[O]1 (stereo unspecified),survivor count,[1],1 of 5
same,survivor count,"dose: 200.0 mg/kg/injection, schedule: Q01DX005 (ip), vehicle: Klucel (hydroxypropylcellulose) (HPC)",0 of 5
O=C(Nc1ccc(Cl)cc1)Nc1nnc(/C=C/c2ccccc2)o1,survivor count,[4],6 of 6
N=Cc1cc([N+](=O)[O-])ccc1O,survivor count,[4],0 of 6
Cc1ccc2nc(NC(=O)N(CCCl)N=O)sc2c1,T/C,"dose: 100.0 mg/kg/injection, schedule: Q04DX003 (ip), vehicle: saline with Tween-80",127 % of control
same,T/C,"dose: 200.0 mg/kg/injection, schedule: Q04DX003 (ip), vehicle: saline with Tween-80",145 % of control
same,T/C,"dose: 264.0 mg/kg/injection, schedule: Q04DX003 (ip), vehicle: saline sonified",130 % of control
same,T/C,"dose: 400.0 mg/kg/injection, schedule: Q04DX003 (ip), vehicle: saline sonified",135 % of control
same,survivor count,"dose: 600.0 mg/kg/injection, schedule: Q04DX003 (ip), vehicle: saline sonified",1 of 6
Cc1ccc2nc(CN(CCN(Cc3nc4ccc(C)cc4[nH]3)Cc3nc4ccc(C)cc4[nH]3)Cc3nc4ccc(C)cc4[nH]3)[nH]c2c1,survivor count,"dose: 6.25 mg/kg/injection, schedule: Q01DX005 (ip), vehicle: saline with Tween-80",4 of 6
same,survivor count,"dose: 12.5 mg/kg/injection, schedule: Q01DX005 (ip), vehicle: saline with Tween-80",3 of 6
same,survivor count,[5],0 of 6
same,survivor count,[6],0 of 6
same,survivor count,[7],0 of 6
Cc1nn(C)c(Cl)c1C(=O)Nc1ccccc1,survivor count,[8],0 of 6
Cc1ccc(C(=O)CCN(C)C)c(C)c1,survivor count,"dose: 120.0 mg/kg/injection, schedule: Q01DX005 (ip), vehicle: saline",0 of 6
same,survivor count,[9],0 of 6
O=C(c1ccc(-c2ccccc2)cc1)C1C(c2ccccc2)N1C1CCCCC1 (stereo unspecified),survivor count,"dose: 12.5 mg/kg/injection, schedule: Q01DX009 (ip), vehicle: other",6 of 6
same,survivor count,"dose: 50.0 mg/kg/injection, schedule: Q01DX009 (ip), vehicle: other",6 of 6
same,survivor count,"dose: 200.0 mg/kg/injection, schedule: Q01DX009 (ip), vehicle: other",6 of 6
COc1ccc2c(N=[N+]=[N-])cc(C)nc2c1,survivor count,[8],1 of 6 and 2 of 6
same,survivor count,[4],0 of 6
COc1ccc(OC)c(NC(=O)C2=C(C)NC(C)=C(C(=O)Nc3cc(OC)ccc3OC)C2c2cccc([N+](=O)[O-])c2)c1,survivor count,"dose: 60.0 mg/kg/injection, schedule: Q01DX005 (ip), vehicle: Klucel (hydroxypropylcellulose) (HPC)",6 of 6
same,survivor count,"dose: 120.0 mg/kg/injection, schedule: Q01DX005 (ip), vehicle: Klucel (hydroxypropylcellulose) (HPC)",6 of 6
same,survivor count,[10],6 of 6
Cc1ccc(S(=O)(=O)N/N=C/C=N/NS(=O)(=O)c2ccc(C)cc2)cc1,survivor count,"dose: 400.0 mg/kg/injection, schedule: Q01DX009 (ip), vehicle: other",6 of 6
OC1CN(Cc2ccccc2)C[C@@H]1O (stereo partly specified),survivor count,[9],3 of 6
[Co].[N-]=C=S.[N-]=C=S.[N-]=C=S.[NH-]CC[N-]CC[NH-],survivor count,"dose: 11.0 mg/kg/injection, schedule: Q01DX009 (ip), vehicle: saline",6 of 6
same,survivor count,"dose: 100.0 mg/kg/injection, schedule: Q01DX009 (ip), vehicle: saline",3 of 6
same,survivor count,"dose: 200.0 mg/kg/injection, schedule: Q01DX009 (ip), vehicle: saline",0 of 6
CC1=CC(=O)C=C(C)C1=O,survivor count,"dose: 12.5 mg/kg/injection, schedule: Q04DX003 (ip), vehicle: saline + alcohol",3 of 6
same,survivor count,"dose: 25.0 mg/kg/injection, schedule: Q04DX003 (ip), vehicle: saline + alcohol",0 of 6
same,survivor count,"dose: 50.0 mg/kg/injection, schedule: Q04DX003 (ip), vehicle: saline + alcohol",0 of 6
same,survivor count,"dose: 100.0 mg/kg/injection, schedule: Q04DX003 (ip), vehicle: saline + alcohol",0 of 6
same,survivor count,"dose: 200.0 mg/kg/injection, schedule: Q04DX003 (ip), vehicle: saline + alcohol",0 of 6
same,survivor count,"dose: 400.0 mg/kg/injection, schedule: Q04DX003 (ip), vehicle: saline + alcohol",0 of 6
CCCCCCC(/C=C/c1ccc(Cl)c(Cl)c1)=N\Nc1ccccc1,survivor count,"dose: 50.0 mg/kg/injection, schedule: Q01DX009 (ip), vehicle: saline with Tween-80",6 of 6
same,survivor count,"dose: 100.0 mg/kg/injection, schedule: Q01DX009 (ip), vehicle: saline with Tween-80",6 of 6
same,survivor count,"dose: 200.0 mg/kg/injection, schedule: Q01DX009 (ip), vehicle: saline with Tween-80",6 of 6
C/C(=N\N=C(N)N)c1ccc2c(c1)Cc1cc(/C(C)=N/N=C(N)N)ccc1-2,survivor count,"dose: 200.0 mg/kg/injection, schedule: Q04DX002 (ip), vehicle: saline with Tween-80",4 of 6
Cc1ccc(S(=O)(=O)NN=C(C(=O)O)C(=O)O)cc1,survivor count,"dose: 100.0 mg/kg/injection, schedule: Q01DX009 (ip), vehicle: distilled water + Tween-80",3 of 6
same,survivor count,"dose: 400.0 mg/kg/injection, schedule: Q01DX009 (ip), vehicle: distilled water + Tween-80",0 of 6
Nc1nc(C(Br)Br)c([N+](=O)[O-])c(=O)[nH]1,T/C,[5],134 % of control [4 of 5 alive]
same,survivor count,[6],0 of 3 and 0 of 5
same,survivor count,[7],0 of 5
COc1ccc(C(=O)N2C3C4C=CC(C4)C3N2C(=O)c2ccc(OC)cc2)cc1 (stereo unspecified),survivor count,[1],6 of 6
C/C(=N/N)c1ccc(Br)cc1,survivor count,[11],6 of 6
O=C(C=C(C(F)(F)F)C(F)(F)F)c1ccccc1Cl,T/C,[11],145 % of control [5 of 6 alive]
same,survivor count,"dose: 50.0 mg/kg/injection, schedule: Q04DX003 (ip), vehicle: saline with Tween-80",6 of 6
CCC[CH2][Sn]([Cl])([Cl])[CH2]CCC.c1ccc(-c2nnc(-c3ccccn3)nc2-c2ccccc2)cc1,survivor count,[10],2 of 6
Cc1ccc(S(=O)(=O)Nc2cccc3c(NS(=O)(=O)c4ccc(C)cc4)cccc23)cc1,survivor count,[3],6 of 6
O=C(c1ccccc1)C(CN1CCCC1)CN1CCCC1,survivor count,"dose: 100.0 mg/kg/injection, schedule: Q01DX005 (ip), vehicle: saline",0 of 6
same,survivor count,[2],0 of 6
Cc1cc(NC(=S)SCc2ccc(Cl)cc2)c([N+](=O)[O-])cc1C,survivor count,"dose: 100.0 mg/kg/injection, schedule: Q01DX009 (ip), vehicle: suspension in saline",4 of 6
C=CCN(CC=C)CCSC(=S)NCCOC,survivor count,"dose: 400.0 mg/kg/injection, schedule: Q04DX003 (ip), vehicle: saline with Tween-80",6 of 6
